At least one structure is not confirmed: it was looked up by name or label, or the drawing left a doubt.
Tested on: MRSA strain USA300-LAC
Assay: Zn(II)/Cu-dependent antibiotic screening of the Selleckchem bioactives library (resazurin growth readout)
Format: cell-based, Staphylococcus aureus
Settings: compound 10 μM, with vs without 25 μM ZnSO4, 1×RPMI 1640; hit = growth reduced by at least 50%

Cc1ccc(C(=O)Nc2ccc(CN3CCN(C)CC3)c(C(F)(F)F)c2)cc1C#Cc1cnc2cccnn12 [ponatinib]
Activity class in Zn-dependent screening: Zn-activated
